Experimental data taken from paper PMC4074815, “An Impermeant Ganetespib Analog Inhibits Extracellular Hsp90-Mediated Cancer Cell Migration that Involves Lysyl Oxidase 2-like Protein” (Cancers, 2014).
No constants are given. Whether binding was seen depends on the method and setting. Binding seen in cells or lysates may run through a third protein. Some binding calls cover weakened binding; strength is not graded here.

By UniProt entry, the sequences of proteins in these tests, tags left out. Residues count along the entry.
UniProt Q9Y4K0, residues 26-774: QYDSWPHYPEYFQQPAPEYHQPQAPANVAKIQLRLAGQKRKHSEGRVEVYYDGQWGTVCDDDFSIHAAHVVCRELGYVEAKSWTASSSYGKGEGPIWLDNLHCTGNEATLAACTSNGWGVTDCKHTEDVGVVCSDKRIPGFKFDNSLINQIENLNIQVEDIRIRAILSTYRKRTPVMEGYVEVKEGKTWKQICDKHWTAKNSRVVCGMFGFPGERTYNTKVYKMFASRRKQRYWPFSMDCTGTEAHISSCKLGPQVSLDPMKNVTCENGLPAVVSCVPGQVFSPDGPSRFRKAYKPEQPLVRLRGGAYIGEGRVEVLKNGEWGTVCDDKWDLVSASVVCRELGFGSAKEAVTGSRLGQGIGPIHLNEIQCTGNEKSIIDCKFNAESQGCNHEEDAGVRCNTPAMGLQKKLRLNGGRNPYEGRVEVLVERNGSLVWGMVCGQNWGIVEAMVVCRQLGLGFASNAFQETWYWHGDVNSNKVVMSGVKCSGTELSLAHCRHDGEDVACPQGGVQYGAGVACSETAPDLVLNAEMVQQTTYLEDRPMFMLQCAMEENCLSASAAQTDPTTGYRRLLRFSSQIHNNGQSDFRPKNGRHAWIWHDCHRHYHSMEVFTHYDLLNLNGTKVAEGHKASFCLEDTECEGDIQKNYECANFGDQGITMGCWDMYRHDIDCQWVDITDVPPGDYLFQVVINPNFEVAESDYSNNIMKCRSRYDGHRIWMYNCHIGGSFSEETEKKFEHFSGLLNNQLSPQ

What was measured:
[1] = biological target: Lysyl Oxidase-like 2 precursor (human (endogenous in MDA-MB231)) (UniProt Q9Y4K0); experiment: co-IP; immunoprecipitation with anti-Hsp90 alpha or anti-LOXL2 (2.5 μg) from concentrated conditioned media of MDA-MB231 cells; washed with RIPA B buffer; Western blot
[2] = biological target: Heat Shock Protein 90 kDa alpha (cytosolic), class A member 1 isoform 2 (human (endogenous in MDA-MB231)) (UniProt P07900); experiment: as above

Row | Substance | binding [1] | binding [2]
1 | Heat Shock Protein 90 kDa alpha (cytosolic), class A member 1 isoform 2 (from UniProt P07900 1-732) | binds | 
2 | Lysyl Oxidase-like 2 precursor (from UniProt Q9Y4K0 26-774) |  | binds
